From PubChem BioAssay AID445 (National Center for Advancing Translational Sciences (NCATS), 2006)
This is one part of the list. Further columns of the screen follow, without active or inactive calls. Most of these compounds were active or inconclusive in the main read-out, so they are no random draw. Potencies come from curve fits of mixed quality, noted in brackets.

Test: IkB Signaling
Conditions: ABC-DLBCL IkBa-CBG/CBR dual luciferase ratio (green luciferase fused to IkBa over red control in OCI-Ly3 lymphoma cells), 4 h
Method in brief: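 Luminescence ratio of IκBα-fused green versus native red beetle luciferase in OCI-Ly3 cells, 4 h post-doxycycline with compound; red signal alone, scaled from basal (0%) to zero light (-100%), flagged nonspecific or cytotoxic effects.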

[1] = measured here: control luc red channel unless noted

O=C(OCc1cc(=O)n2nc(C3CCCCC3)sc2n1)c1ccccc1Cl
AC50 [1]: 0.794 µM [rising, full curve]

COCCCNC(=O)c1ccc(-n2c(-c3ccccc3)cc3c2CCCC3)cc1
AC50 [1]: 10 µM [falling, partial curve]

Cc1ccc(-c2nc(-c3ccccc3)no2)c(Cl)c1
AC50 [1]: 12.6 µM [falling, partial curve]

COc1ccccc1C(=O)N(Cc1nc(-c2ccc(Cl)cc2)no1)C(C)C
AC50 [1]: 12.6 µM [falling, partial curve]

O=C(Cn1c(=O)n(-c2cccc(Cl)c2)c(=O)c2sc3ccccc3c21)NC1CCCCC1
AC50 [1]: 20 µM [falling, single point]

Cc1ccc(OCC(=O)Nc2cccc(-c3nc4ccccc4o3)c2C)cc1C
AC50 [1]: 31.6 µM [falling, partial curve]

CN(C)C(CNc1nnnn1-c1ccccc1)c1ccco1 (configuration not stated)
AC50 [1]: 25.1 µM [rising, single point] [measured here: IkB-luc green channel]

CCN(CC)S(=O)(=O)c1ccc2c(c1)nc(CCC(=O)OCC(=O)N1CCc3ccccc31)n2C
AC50 [1]: 15.8 µM [falling, partial curve]

O=C(Nc1ccc(S(=O)(=O)Nc2cnc3ccccc3n2)cc1)c1ccc(Br)o1
AC50 [1]: 12.6 µM [falling, partial curve]

COc1ccccc1NC(=O)c1c(NC(=O)COc2ccccc2)sc2c1CCCCC2
AC50 [1]: 20 µM [falling, partial curve]

O=C(CSCc1ccc(F)cc1)N1CCN(c2ccc(Cl)cc2)CC1
AC50 [1]: 31.6 µM [falling, single point]

Cc1cc(C)n2nc(SCC3COc4ccccc4O3)nc2n1 (configuration not stated)
AC50 [1]: 3.98 µM [rising, full curve, poor fit]

Clc1ccc(CN2CCC(CNc3ncnc4onc(-c5ccc(Cl)cc5)c34)CC2)cc1
AC50 [1]: 20 µM [falling, partial curve]

Fc1ccc(NCc2nnc(SCc3nnc(-c4ccccc4)o3)n2Cc2ccccc2)cc1
AC50 [1]: 25.1 µM [falling, partial curve]

COc1cc(OC)c(OC)cc1/C=C/c1nc2cc3ccccc3cc2c(=O)n1-c1ccc(F)c(Cl)c1
AC50 [1]: 31.6 µM [falling, partial curve]

O=C(OC1CCOC1=O)c1ccc(-c2nc3ccccc3s2)s1 (configuration not stated)
AC50 [1]: 12.6 µM [falling, partial curve]

CCC(=O)NC1(C(F)(F)F)C(=O)NC(C)=C1C#N (configuration not stated)
AC50 [1]: 12.6 µM [falling, partial curve]

O=C(c1ccc2c(c1)N(Cc1ccccc1F)C(=O)c1ccccc1S2(=O)=O)N1CCN(c2ccccc2F)CC1
AC50 [1]: 1.26 µM [falling, partial curve]

CCN(CC)C(=O)c1sc2c(c1C)c(=O)n(CCc1ccccc1)c(=O)n2Cc1ccc(F)cc1Cl
AC50 [1]: 7.94 µM [falling, partial curve]

O=C1OCCC1Sc1nnc(-c2ccc(Br)cc2)o1 (configuration not stated)
AC50 [1]: 1.58 µM [falling, full curve]

O=C(CCC1N=C2c3ccccc3N=C(SCc3cccc(Cl)c3)N2C1=O)N1CCN(c2ccccc2)CC1 (configuration not stated)
AC50 [1]: 39.8 µM [falling, single point]

O=C(OCC(=O)N1CCN(c2ccccc2)CC1)c1ccc2ncsc2c1
AC50 [1]: 25.1 µM [falling, partial curve]

COc1cc2[nH]c(=O)n(CCC(=O)N3CCN(c4ccc(Cl)cc4)CC3)c(=O)c2cc1OC
AC50 [1]: 3.98 µM [falling, partial curve]

CCn1nc(-c2ccccc2)c(-c2ccccc2)c(C(=O)Nc2ccccc2C#N)c1=O
AC50 [1]: 25.1 µM [falling, partial curve]

CCOC(=O)CSC1=C(C#N)C(c2ccco2)C(C(=O)OCc2ccccc2)=C(C)N1 (configuration not stated)
AC50 [1]: 25.1 µM [falling, partial curve]

O=C1Oc2ccccc2C(=O)/C1=C\N1C(=O)N/C(=C\c2ccccc2O)C1=O
AC50 [1]: 0.794 µM [falling, partial curve]

CCOc1ccc(N(CC(=O)Nc2ccccc2CC)S(=O)(=O)c2c(C)noc2C)cc1
AC50 [1]: 5.01 µM [rising, full curve]

COc1ccc(NC(=O)c2c(NC(=O)c3ccncc3)sc3c2CCC(C(C)(C)C)C3)cc1 (configuration not stated)
AC50 [1]: 5.01 µM [falling, full curve]

Cc1cccc(NC(=O)CSc2nc3ccccc3nc2N2CCCCC2)c1C
AC50 [1]: 15.8 µM [falling, partial curve]

COc1cc(NC(=O)C(Cc2ccccc2)NS(=O)(=O)c2cccc3nsnc23)cc(OC)c1 (configuration not stated)
AC50 [1]: 7.94 µM [falling, full curve]

O=C(Cn1ccn(-c2ccc(F)c(F)c2)c(=O)c1=O)NCCc1ccccc1
AC50 [1]: 25.1 µM [rising, partial curve, poor fit]

CC(=O)c1cccc(NC(=O)CCc2c(C)nc3c(c(C)nn3-c3ccccc3)c2C)c1
AC50 [1]: 10 µM [falling, partial curve]

CCCCNc1nc(Oc2ccc(=O)n(C)n2)nc(N2CCOCC2)n1
AC50 [1]: 10 µM [falling, partial curve]

CCC(CC)C(=O)Nc1ccc2nc(SCC(=O)N3CCc4ccccc43)sc2c1
AC50 [1]: 3.98 µM [falling, full curve]

O=S(=O)(c1cccc2cnccc12)N1CCNCC1
AC50 [1]: 5.01 µM [falling, full curve]

Cc1ccc(CNC(=O)CN(c2cccc(C)c2C)S(=O)(=O)c2ccccc2)cc1
AC50 [1]: 20 µM [falling, partial curve]

CCCCNc1ccc(-c2nc(-c3ccco3)no2)cc1[N+](=O)[O-]
AC50 [1]: 12.6 µM [falling, partial curve]

CCOC(=O)c1c(-c2ccc(C)cc2)csc1NC(=O)c1cc(-c2ccc(C)c(F)c2)on1
AC50 [1]: 25.1 µM [falling, single point]

CC(=O)c1cccc(NC(=O)C2CCCN(C(=O)c3cnn(-c4ccccc4)c3-n3cccc3)C2)c1 (configuration not stated)
AC50 [1]: 25.1 µM [falling, single point]

COc1ccc(-c2nc(SCC(=O)Nc3ccc4c(c3)OCCO4)c(-c3ccc(F)cc3)[nH]2)cc1OC
AC50 [1]: 10 µM [falling, partial curve]

O=C(c1ccc2c(c1)N(Cc1ccc(F)cc1)C(=O)c1ccccc1S2(=O)=O)N1CCN(Cc2ccccc2)CC1
AC50 [1]: 12.6 µM [falling, partial curve]

CCOC(=O)C1CCN(C(=O)Cn2ncc3c4ccccc4n(Cc4ccc(F)cc4)c3c2=O)CC1
AC50 [1]: 12.6 µM [falling, partial curve]

CC(C)(C)C(=O)Cn1c(=O)n(-c2ccccc2)c(=O)c2c3c(sc21)CCC3
AC50 [1]: 0.1 µM [rising, full curve]

Cc1nn(-c2ccccc2)c2nc(-c3ccncc3)cc(C(=O)NCc3ccco3)c12
AC50 [1]: 20 µM [falling, single point]

Cc1cc(NC(=O)CSc2ncc(C(=O)Nc3ccc(Cl)cc3)c(=O)n2C)no1
AC50 [1]: 3.98 µM [falling, single point]

Cc1sc(NC(=O)c2ccco2)nc1-c1ccc2c(c1)CC(C)N2C(=O)C1CC1 (configuration not stated)
AC50 (measured here: IkB-luc green channel): 7.94 µM [falling, partial curve] | AC50 (measured here: control luc red channel): 2.51 µM [falling, full curve]

O=C(NC1CCCC1)c1ccc2c(c1)N(Cc1ccccc1)C(=O)c1ccccc1S2
AC50 [1]: 15.8 µM [falling, partial curve]

CC1CCN(c2nc3ccc(C(=O)NCc4ccccc4Cl)cc3s2)CC1
AC50 [1]: 3.98 µM [falling, partial curve]

COc1ccc(C2=C(N3CCN(c4cccc(C)c4)C(C)C3)c3ccccc3C2=O)cc1 (configuration not stated)
AC50 [1]: 12.6 µM [falling, single point]

CCOc1nc(C#N)nc(N2CCCCC2)n1
AC50 [1]: 2.51 µM [falling, partial curve]

COc1cc2ncc(C(=O)c3ccc(C)cc3)c(N3CCCCC3)c2cc1OC
AC50 [1]: 39.8 µM [falling, single point]

NCCCCNCCCN
AC50 [1]: 39.8 µM [rising, partial curve] [measured here: IkB-luc green channel]

Cc1cccn2c(=O)c(C(=O)NCCc3ccccc3)cnc12
AC50 [1]: 15.8 µM [falling, partial curve]

COc1ccc(CNCCC(c2ccc3c(c2)OCO3)c2ccccc2OC)cc1 (configuration not stated)
AC50 [1]: 25.1 µM [falling, partial curve]

Cc1cccc(NC(=O)COc2ccc(-c3nn(C)c(=O)c4ccccc34)cc2)c1
AC50 [1]: 39.8 µM [falling, single point]

COC(=O)c1ccccc1NC(=O)CSc1nc(=O)cc(N)n1-c1ccccc1
AC50 [1]: 7.94 µM [falling, partial curve]

COc1cc(OC)c(NC(=O)CN2CCCN(Cc3ccccc3C)S2(=O)=O)cc1Cl
AC50 [1]: 15.8 µM [rising, partial curve]

N#Cc1ccc(OCc2nnc(SCC(=O)N3CCCc4ccccc43)n2-c2ccccc2)cc1
AC50 [1]: 25.1 µM [falling, partial curve]

Cc1ccccc1C(=O)Nc1c(C)nc2ccccn2c1=O
AC50 [1]: 0.501 µM [rising, partial curve, poor fit]

Cc1cc(Cl)cc2c1NC(=O)[C@]21[C@@H]2C(=O)N(Cc3ccccc3)C(=O)[C@@H]2[C@@H]2CCCN21
AC50 [1]: 10 µM [falling, partial curve]

Cn1c(=O)oc2cc(S(=O)(=O)N3CCCC(C(=O)NCCc4ccccc4)C3)ccc21 (configuration not stated)
AC50 [1]: 15.8 µM [falling, partial curve]
